The other results are listed elsewhere or left out. Many values rest on one well or one pass, so single values are uncertain.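 The apoptosis fraction was the count of cleaved-PARP antibody-stained nuclei relative to all DNA-stained nuclei, imaged in 1,536-well plates. Screening doses were set so most cells survived, and baseline and induced cleaved-PARP levels vary greatly across cell lines.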
System: SkMel5
Assay: cleaved PARP positive nuclei fraction relative to DMSO control; melanoma cells; higher = more apoptosis
Settings: library dose: low library concentration; 72 h

Compound	cleaved PARP positive nuclei fraction [%]
NC(=O)Nc1cc(-c2cccc(F)c2)sc1C(=O)N[C@H]1CCCNC1 + Oc1cc(-c2nc(-c3ccccc3)[nH]c2-c2ccncc2)ccc1Cl [L779450] (first compound 0.02 µM, partner dose 0.2 µM)	76.8
C#Cc1cccc(Nc2ncnc3cc(OCCOC)c(OCCOC)cc23)c1 [erlotinib] + c1cc(-c2cnn3cc(-c4ccc(OCCN5CCCCC5)cc4)cnc23)ccn1 [Dorsomorphin] (first compound 0.8 µM, partner dose 0.4 µM)	32.1
O=C(CCCCCCC(=O)Nc1ccccc1)NO [vorinostat] + CC(C)CCN1c2nc(Nc3cc(F)c(O)c(F)c3)ncc2N(C)C(=O)C1C [BID1870] (first compound 0.08 µM, partner dose 0.2 µM)	68.7
C#Cc1cccc(Nc2ncnc3cc(OCCOC)c(OCCOC)cc23)c1 [erlotinib] + CCCCCCCCCCCC1=C(O)C(=O)C=C(O)C1=O [Embelin] (first compound 0.8 µM, partner dose 1.2 µM)	84.2
Cn1nnc2c(C(N)=O)ncn2c1=O [temozolomide] + CC(C)CCN1c2nc(Nc3cc(F)c(O)c(F)c3)ncc2N(C)C(=O)C1C [BID1870] (first compound 2 µM, partner dose 0.2 µM)	28.1
C#Cc1cccc(Nc2ncnc3cc(OCCOC)c(OCCOC)cc23)c1 [erlotinib] + O=C(O)C(=O)Nc1sc2c(c1C(=O)O)CCNC2 [TCS401] (first compound 0.8 µM, partner dose 1.66667 µM)	64.1

Source: the supplement of paper PMC4604168 (melanoma cell lines)
